Entries after “also recorded” stand apart in the source; their conditions may differ.
Tested on: formalin-injected mice
Experiment: Formalin-induced chronic pain-like state (CPLS): persistent hypersensitivity to heat and mechanical stimuli
Assay type: in vivo, mouse
Settings: maximally effective dosages on PFD2-4: gabapentin 50 mg-kg^−1 IP, morphine 10 mg-kg^−1 subcutaneous, ketamine 4 mg-kg^−1 IP, ketoprofen 100 mg-kg^−1 IP, WT mice

SMILES: CN1CC[C@]23c4c5ccc(O)c4O[C@H]2[C@@H](O)C=C[C@H]3[C@H]1C5 [morphine]
- conversion to CPLS (contralateral hyperalgesia, PFD14): not mimicked; also recorded: failed to stop; also recorded: do not prevent; also recorded: fail to prevent

From US20240252486A1, “ALGOSTATIC AGENTS FOR PREVENTING TRANSITION FROM ACUTE TO CHRONIC PAIN” (The Regents of the University of California, priority 2021, published 2024)
